# Assay results published in PubChem BioAssay AID540276 (National Center for Advancing Translational Sciences (NCATS), 2011).
# The campaign covered roughly 300,000 compounds. About 5,400 (1.8%) were called active. Inconclusive means that the source gave no clear call. Such entries were picked first, then a sample of the others. Calls come from the whole dose curve; tested in HEK293 cells. Where the call is inconclusive, the potency comes from a doubtful curve fit.
# Assay: qHTS for inhibitors of binding or entry into cells for Marburg Virus
# Conditions: Marburg virus pseudotyped entry inhibition, cell reporter; activity change, negative = inhibition: at 37.8 µM (top of the series) unless noted
# % is set by controls: 0 for no effect and ±100 for the full control effect; potency is the fitted concentration of half-maximal effect.
Structure (SMILES),Potency,"activity change, negative = inhibition"
CN(C(=S)Nc1ccc(SC(F)F)cc1)c1ccc(O)cc1,"inconclusive: 6.31 µM [inhibitor, full curve, poor fit]",
COc1ccc(Nc2oc(-c3ccc(COc4cccc(C)c4)o3)nc2C#N)cc1,,inactive: -23.8% [at 46.1 µM]
COC(=O)c1cc(NC(=O)CCc2c(C)nc3c(c(C)nn3C(C)(C)C)c2C)cc(C(=O)OC)c1,,inactive: -7.74% [at 46.1 µM]
CCSc1nnc(NC(=O)c2ccc3ccccc3n2)s1,"inconclusive: 35.5 µM [inhibitor, single point]",
CCSc1nnc(NC(=O)CSc2nnc(Cc3cccn3C)n2CCc2ccccc2)s1,"inconclusive: 1.16 µM [inhibitor, single point]",
CC(C)(C)CC(=O)NCCCCCCNC(=O)CC(C)(C)C,"inconclusive: 3.98 µM [inhibitor, single point]",
CC(C)C(=O)N1CCN(c2ccccc2NC(=S)NC(=O)c2cccs2)CC1,"inconclusive: 2.82 µM [inhibitor, full curve, poor fit]",
Clc1ccc(-c2nnc(COc3ncnc4ccccc34)o2)cc1,"inconclusive: 1.26 µM [inhibitor, single point]",
CC(C)c1ccc(C2Sc3ccccc3NC3=C2C(=O)c2ccccc23)cc1 (stereo unspecified),"inconclusive: 10 µM [inhibitor, partial curve, poor fit]",
CCC(C(=O)NCCC1=CCCCC1)c1ccccc1 (stereo unspecified),"inconclusive: 14.1 µM [activator, single point]",
Cc1ccc(C)c(N=Cc2c(O)c3ccccc3oc2=O)c1,,inactive: -14%
O=C(O)C1CC(=O)N(CCc2c[nH]c3ccccc23)C1 (stereo unspecified),,inactive: 5.62%
CCOc1ccc(N2CC(C(=O)Nc3ccc(OC)c(S(=O)(=O)N4CCCCC4)c3)CC2=O)cc1 (stereo unspecified),"inconclusive: 5.62 µM [inhibitor, single point]",
N=c1sccn1CC(=O)Nc1cccc(Oc2ccccc2)c1,"inconclusive: 35.5 µM [inhibitor, partial curve, poor fit]",
Cc1ccc(OCCOCCOc2cccc3cccnc23)c(Br)c1,"inconclusive: 1.78 µM [activator, partial curve, poor fit]",
O=S(=O)(c1ccc2c(c1)CCCN2)N1CCCC2CCCCC21 (stereo unspecified),"inconclusive: 7.08 µM [inhibitor, partial curve, poor fit]",
O/N=C1/CCSc2ccccc21,,inactive: 3.61%
CCOC(=O)C1CCN(C(=O)Cn2nc(C)n3c(cc4sccc43)c2=O)CC1,,inactive: -4.03% [at 46.1 µM]
CC1=NN(/C(=N\c2nnc(C)s2)Nc2ccccc2)[C@H](c2cccc3ccccc23)S1,"inconclusive: 29.1 µM [inhibitor, single point]",
O=C(Cc1ccsc1)N1CCc2c([nH]c3ccccc23)C1c1ccccn1 (stereo unspecified),"inconclusive: 35.5 µM [inhibitor, partial curve, poor fit]",
CCc1ccc(NC(=S)NC(=O)c2c(-c3ccccc3Cl)noc2C)cc1,"inconclusive: 2.82 µM [inhibitor, partial curve, poor fit]",
Cn1cnnc1Sc1cc(N2CCN(S(=O)(=O)c3ccc4ccccc4c3)CC2)ccc1[N+](=O)[O-],,inactive: -2.8%

Structure (SMILES),Potency,"activity change, negative = inhibition"
O=C(Cn1ncc(Cl)c(Cl)c1=O)N1CCOCC1,"inconclusive: 10 µM [inhibitor, partial curve, poor fit]",
CCCC1(CCC)C(=O)NC(=NCc2ccccc2)NC1=O,"inconclusive: 29.1 µM [inhibitor, single point]",
O=C(Nc1nc(NC(=O)c2ccco2)n(-c2ccccc2)n1)c1ccccc1,"inconclusive: 20.6 µM [inhibitor, partial curve, poor fit]",
O=C(CN1CCN(C(=O)CCC(=O)N2CCC(c3ccccc3)=N2)CC1)Nc1ccc(F)cc1,"inconclusive: 6.31 µM [inhibitor, single point]",
O=C(O)c1ccc(N/N=C/c2ccc(OC(=O)c3ccccc3Cl)cc2)cc1,"inconclusive: 1.26 µM [inhibitor, full curve, poor fit]",
c1cnc2ccc(C(c3nnnn3C3CCCCC3)N3CCCCC3)cc2c1 (stereo unspecified),,inactive: -16.4%
CC(C)n1c(/C=C/c2ccccc2)nc2ccccc21,"inconclusive: 2.82 µM [activator, full curve, poor fit]",
COc1ccc(-c2csc(N(CCCN(C)C)C(=O)c3ccc(C)cc3)n2)cc1,"inconclusive: 8.91 µM [inhibitor, partial curve, poor fit]",
CC(C(=O)Nc1nncs1)N1C(=O)C2C3C=CC(C3)C2C1=O (stereo unspecified),"inconclusive: 1.26 µM [inhibitor, partial curve, poor fit]",
O=C(Nc1ccc2nc(-c3cccs3)c(-c3cccs3)nc2c1)N1CCOCC1,"inconclusive: 29.1 µM [inhibitor, single point]",
O=C(COC(=O)c1c(Cl)ccc(Cl)c1Cl)NC(=O)NCc1ccccc1,"inconclusive: 0.326 µM [activator, partial curve, poor fit]",
CCCCOc1ccc(-c2cnc3ccccc3n2)cc1,"inconclusive: 12.6 µM [inhibitor, single point]",
O=C(NC1CCCCC1)c1cc(-c2ccc(Cl)cc2)on1,,inactive: 9.3% [at 46.1 µM]
Cc1ccc(-c2nc3ccccc3[nH]2)cc1NC(=O)COc1ccccc1[N+](=O)[O-],,inactive: -17.3% [at 46.1 µM]
CCCn1c(SCC(=O)Nc2ccccc2Cl)nc(O)cc1=O,"inconclusive: 3.16 µM [inhibitor, single point]",
COC(=O)C1=C(C)NC(C)=C(C(=O)OC)C1c1cn(-c2ccccc2)nc1-c1ccco1,"inconclusive: 20.6 µM [inhibitor, single point]",
Cc1ccc(C(=O)c2ccc(O)cc2)cc1C,,inactive: -2.11%
N#Cc1nc(COc2ccc(Cl)cc2Cl)oc1N1CCN(c2ccccc2)CC1,,inactive: 1.06%
COc1ccc([N+](=O)[O-])cc1NC(=O)Cc1ccccc1Cl,"inconclusive: 0.282 µM [activator, partial curve, poor fit]",
O=C(CN1CCCCC1)N/N=C/c1ccccc1Br,,inactive: 0.815% [at 46.1 µM]
Cc1cc(C(=O)CS(=O)(=O)c2ccc(F)cc2)cc(C)c1OC(=O)N(C)C,"inconclusive: 7.94 µM [inhibitor, partial curve]",
COc1ccc(C2C=C(c3ccc(F)cc3)Nc3nc(-c4ccc(Cl)cc4)nn32)cc1 (stereo unspecified),"inconclusive: 11.2 µM [inhibitor, partial curve, poor fit]",

Structure (SMILES),Potency,"activity change, negative = inhibition"
COc1cc(C)cc(C(=O)C=Cc2ccccc2)c1O,"inconclusive: 35.5 µM [inhibitor, single point]",
COc1ccc(S(=O)(=O)N2CCC(NC(=O)C3CCCCC3)CC2)cc1,,inactive: 2.47% [at 46.1 µM]
COc1cc(OC)c(NC(=O)c2ccoc2C)cc1Cl,"inconclusive: 0.13 µM [inhibitor, full curve, poor fit]",
CC(=O)c1ccc(NC(=O)c2ccc(S(=O)(=O)N3CCCC3)cc2)cc1,,inactive: -0.332%
O=C(Nc1cccc(O)c1)c1ccc(NC(=O)C2CCCO2)cc1 (stereo unspecified),"inconclusive: 5.62 µM [activator, single point]",
CCCOc1ccc(/C=N/O)cc1,"inconclusive: 35.5 µM [activator, single point]",
COc1ccc2nc(SCC(=O)Nc3cc(C)on3)c(C#N)cc2c1,"inconclusive: 3.55 µM [inhibitor, full curve, poor fit]",
N#CC1=C(N)OC2=C(CCc3ccccc32)C1c1ccccc1 (stereo unspecified),"inconclusive: 0.291 µM [inhibitor, full curve]",
CN(C)N=Nc1ccc(S(=O)(=O)N2CCSC2C(=O)O)cc1 (stereo unspecified),"inconclusive: 6.51 µM [activator, single point]",
Cc1ccc(C(CCN(Cc2ccccc2)C(=O)c2ccco2)c2ccco2)cc1 (stereo unspecified),,inactive: -9.68%
CN1c2ccc([N+](=O)[O-])cc2CC2(C(=O)NC(=O)N(c3ccc(Br)cc3)C2=O)C1c1ccccc1 (stereo unspecified),"inconclusive: 10 µM [inhibitor, single point]",
Cn1cc(CN2CCCCC2CO)c(-c2ccc(Oc3ccccc3)cc2)n1 (stereo unspecified),"inconclusive: 10 µM [inhibitor, partial curve, poor fit]",
CCCC(=O)N(C1CC(C)C(C#N)(C#N)C1(C#N)C#N)N(C)C (stereo unspecified),"inconclusive: 35.5 µM [inhibitor, partial curve, poor fit]",
O=S(=O)(c1ccccc1)N1CCCCC1CCc1ccccc1 (stereo unspecified),"inconclusive: 25.1 µM [inhibitor, single point]",
CCC(=O)N1c2ccc(S(=O)(=O)CCC(=O)NC3CCCC3)cc2CC1C (stereo unspecified),,inactive: -9.94% [at 46.1 µM]
COc1ccc(NC(=S)N2CCCN(Cc3cc(C)ccc3C)C2)cc1,"inconclusive: 22.4 µM [inhibitor, single point]",
C[C@H](NC(=O)c1ccco1)C(=O)Nc1ccc(S(=O)(=O)N2CCCC2)cc1,"inconclusive: 5.62 µM [inhibitor, single point]",
Cn1c(SCC(=O)C(C)(C)C)nnc1-c1ccc(F)cc1,"inconclusive: 35.5 µM [activator, single point]",
CS(=O)(=O)N1CCc2cc(-c3csc(NC(=O)Cc4cccs4)n3)ccc21,"inconclusive: 23.1 µM [inhibitor, single point]",
CCOC(=O)CC(NC(=O)C1c2ccccc2Oc2ccccc21)c1ccc(C)cc1 (stereo unspecified),"inconclusive: 18.4 µM [inhibitor, partial curve, poor fit]",
Cc1cc(N2CC(=O)N(CCc3ccccc3)C(=O)C2)n2ncnc2n1,"inconclusive: 29.1 µM [inhibitor, single point]",
CN(C)c1nc(Nc2ccc(Cl)cc2)nc(OCC#N)n1,"inconclusive: 35.5 µM [inhibitor, single point]",

# Arranged by formula weight (falling): part of the list above
Structure (SMILES),Potency,"activity change, negative = inhibition"
CS(=O)(=O)N1CCc2cc(-c3csc(NC(=O)Cc4cccs4)n3)ccc21,"inconclusive: 23.1 µM [inhibitor, single point]",
COc1ccc(NC(=S)N2CCCN(Cc3cc(C)ccc3C)C2)cc1,"inconclusive: 22.4 µM [inhibitor, single point]",
COc1cc(C)cc(C(=O)C=Cc2ccccc2)c1O,"inconclusive: 35.5 µM [inhibitor, single point]",
